Results are given in words; binding and its absence hold for the method and conditions named. Binding calls can cover weak binding; strength is not graded here.
Legend:
[1] = target: MenT1 toxin (Rv0078A) of Mycobacterium tuberculosis (Mycobacterium tuberculosis H37Rv) (UniProt L7N686); assay: SEC; both purified
[2] = target: MenT1 toxin (Rv0078A) of Mycobacterium tuberculosis (Mycobacterium tuberculosis H37Rv) (UniProt L7N686); assay: crystal structure; MenAT1 complex (MenT1α:MenA1:MenT1β), 1.44 Å; crystal from 0.2 M sodium fluoride, 0.1 M Bis-Tris propane pH 6.5, 20% w/v PEG 3350; both purified

By UniProt entry, the sequences of proteins in these tests, tags left out. Where a name states a change or a piece, a line headed by the entry shows the natural chain unless it says otherwise.
UniProt L7N686: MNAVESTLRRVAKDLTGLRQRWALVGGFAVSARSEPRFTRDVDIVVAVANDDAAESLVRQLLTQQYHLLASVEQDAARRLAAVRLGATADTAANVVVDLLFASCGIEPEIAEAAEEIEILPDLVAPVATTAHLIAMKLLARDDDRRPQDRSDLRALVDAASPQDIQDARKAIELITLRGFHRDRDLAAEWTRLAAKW
UniProt I6X8G2: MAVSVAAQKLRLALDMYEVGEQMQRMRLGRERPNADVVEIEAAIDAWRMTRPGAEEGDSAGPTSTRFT

MenA1 antitoxin (Rv0078B) of Mycobacterium tuberculosis (from UniProt I6X8G2)
binding [1]: binds | binding [2]: binds
